According to article PMC4742980:
Results are given in words; binding and its absence hold for the method and conditions named. In cells and extracts the contact can be indirect. Some binding calls cover weakened binding; strength is not graded here.

By UniProt entry, the sequences of proteins in these tests, tags left out. Where a name states a change or a piece, a line headed by the entry shows the natural chain unless it says otherwise.
UniProt P11387: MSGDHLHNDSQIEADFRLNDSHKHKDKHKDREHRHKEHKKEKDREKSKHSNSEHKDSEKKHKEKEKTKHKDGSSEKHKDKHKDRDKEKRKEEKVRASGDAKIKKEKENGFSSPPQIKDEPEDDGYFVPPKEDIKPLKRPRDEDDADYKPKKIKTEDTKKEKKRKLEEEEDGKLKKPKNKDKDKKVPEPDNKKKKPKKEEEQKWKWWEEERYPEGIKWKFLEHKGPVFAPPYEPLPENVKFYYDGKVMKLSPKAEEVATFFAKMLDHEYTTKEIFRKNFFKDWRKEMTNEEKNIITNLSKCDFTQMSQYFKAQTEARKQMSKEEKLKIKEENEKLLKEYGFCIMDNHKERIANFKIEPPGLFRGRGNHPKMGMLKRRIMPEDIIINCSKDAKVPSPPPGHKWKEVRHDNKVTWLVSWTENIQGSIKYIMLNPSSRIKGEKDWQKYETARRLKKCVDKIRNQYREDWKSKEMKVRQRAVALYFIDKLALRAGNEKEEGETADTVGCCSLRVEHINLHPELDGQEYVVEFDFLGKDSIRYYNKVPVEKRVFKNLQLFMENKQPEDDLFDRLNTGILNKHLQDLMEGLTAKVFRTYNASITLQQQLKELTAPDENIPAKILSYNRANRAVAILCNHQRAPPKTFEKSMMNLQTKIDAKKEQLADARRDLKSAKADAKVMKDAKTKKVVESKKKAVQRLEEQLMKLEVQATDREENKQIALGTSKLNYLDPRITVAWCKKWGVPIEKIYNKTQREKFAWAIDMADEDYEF
UniProt Q08943: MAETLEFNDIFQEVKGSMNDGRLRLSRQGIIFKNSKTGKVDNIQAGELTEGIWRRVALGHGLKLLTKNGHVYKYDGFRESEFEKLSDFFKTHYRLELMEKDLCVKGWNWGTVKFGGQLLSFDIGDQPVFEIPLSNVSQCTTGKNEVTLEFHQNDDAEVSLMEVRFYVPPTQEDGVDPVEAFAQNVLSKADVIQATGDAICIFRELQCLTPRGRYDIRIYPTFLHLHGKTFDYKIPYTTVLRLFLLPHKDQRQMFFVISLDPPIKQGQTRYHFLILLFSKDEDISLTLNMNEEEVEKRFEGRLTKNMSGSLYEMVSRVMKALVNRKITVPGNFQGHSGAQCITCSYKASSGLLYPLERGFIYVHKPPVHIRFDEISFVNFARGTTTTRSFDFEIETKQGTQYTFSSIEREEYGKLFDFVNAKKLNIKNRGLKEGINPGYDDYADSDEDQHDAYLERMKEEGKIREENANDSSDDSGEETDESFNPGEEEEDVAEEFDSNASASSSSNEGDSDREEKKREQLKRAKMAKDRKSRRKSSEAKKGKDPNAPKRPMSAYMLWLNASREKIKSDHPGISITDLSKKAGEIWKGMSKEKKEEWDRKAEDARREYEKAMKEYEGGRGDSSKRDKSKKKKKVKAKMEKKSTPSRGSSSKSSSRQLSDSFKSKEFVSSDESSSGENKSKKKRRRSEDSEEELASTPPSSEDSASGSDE
UniProt Q3TKT4: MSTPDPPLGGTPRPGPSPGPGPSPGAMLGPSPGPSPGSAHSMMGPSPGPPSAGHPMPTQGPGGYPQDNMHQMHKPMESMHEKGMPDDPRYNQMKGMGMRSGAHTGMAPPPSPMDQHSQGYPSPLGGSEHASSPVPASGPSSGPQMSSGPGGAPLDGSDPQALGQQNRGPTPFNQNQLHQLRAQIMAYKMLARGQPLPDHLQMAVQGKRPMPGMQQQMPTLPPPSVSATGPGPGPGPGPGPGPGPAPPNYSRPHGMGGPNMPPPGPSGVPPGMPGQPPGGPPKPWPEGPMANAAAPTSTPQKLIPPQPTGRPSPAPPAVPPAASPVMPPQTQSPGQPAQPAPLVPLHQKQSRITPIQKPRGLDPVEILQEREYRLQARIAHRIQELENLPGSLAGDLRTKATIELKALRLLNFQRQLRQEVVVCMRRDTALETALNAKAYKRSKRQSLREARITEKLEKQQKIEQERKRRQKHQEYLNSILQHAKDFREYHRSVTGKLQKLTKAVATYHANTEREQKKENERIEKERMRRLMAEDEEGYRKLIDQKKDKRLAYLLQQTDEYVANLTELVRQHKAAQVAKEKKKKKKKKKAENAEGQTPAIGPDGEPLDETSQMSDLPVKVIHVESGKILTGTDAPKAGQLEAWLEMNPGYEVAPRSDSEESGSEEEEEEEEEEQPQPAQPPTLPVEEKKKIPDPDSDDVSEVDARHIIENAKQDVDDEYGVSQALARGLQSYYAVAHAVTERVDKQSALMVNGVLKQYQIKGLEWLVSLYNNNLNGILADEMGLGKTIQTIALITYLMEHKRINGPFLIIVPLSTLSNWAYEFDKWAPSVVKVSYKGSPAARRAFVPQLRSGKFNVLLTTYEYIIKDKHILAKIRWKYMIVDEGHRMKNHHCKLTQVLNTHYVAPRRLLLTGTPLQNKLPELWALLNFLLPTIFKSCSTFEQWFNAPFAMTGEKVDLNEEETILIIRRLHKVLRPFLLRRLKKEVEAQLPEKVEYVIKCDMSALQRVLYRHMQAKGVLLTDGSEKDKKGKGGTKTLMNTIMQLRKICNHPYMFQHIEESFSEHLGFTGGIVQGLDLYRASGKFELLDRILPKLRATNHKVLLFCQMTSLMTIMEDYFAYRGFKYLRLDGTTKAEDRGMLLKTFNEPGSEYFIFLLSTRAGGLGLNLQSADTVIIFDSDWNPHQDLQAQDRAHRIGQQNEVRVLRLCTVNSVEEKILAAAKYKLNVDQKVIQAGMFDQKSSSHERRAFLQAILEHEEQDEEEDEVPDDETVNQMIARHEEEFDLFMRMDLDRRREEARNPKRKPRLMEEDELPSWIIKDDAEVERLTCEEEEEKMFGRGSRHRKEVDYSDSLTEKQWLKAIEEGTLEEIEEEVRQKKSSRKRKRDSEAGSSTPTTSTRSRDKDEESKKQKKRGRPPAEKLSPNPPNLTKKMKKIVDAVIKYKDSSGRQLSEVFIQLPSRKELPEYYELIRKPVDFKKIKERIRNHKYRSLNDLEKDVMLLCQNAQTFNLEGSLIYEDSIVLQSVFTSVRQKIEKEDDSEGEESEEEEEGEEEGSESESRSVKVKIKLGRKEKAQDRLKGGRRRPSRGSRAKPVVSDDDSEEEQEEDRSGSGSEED

Biological target: GFP-tagged human TOP1 (GFP-TOP1) (human) (UniProt P11387)
Test: co-IP; native-IP of GFP-TOP1 or GFP with GFP-Trap_A from nuclei of P388/CPT45 transfectants, western blot; also after control, SSRP1 or SMARCA4 siRNA

binding | Substance
binds | FACT (heterodimeric complex composed of SSRP1 and SPT16/SUPT16H), endogenous, mouse (from UniProt Q08943 1-708; Q920B9 1-1047)
binds | SMARCA4 (endogenous, mouse) (from UniProt Q3TKT4 1-1613)
